PubChem BioAssay AID652243 – Drosophila RNAi Screening Center – 2013
The deposit covers about 24,000 reagents; this is an unselected part of those with a known target gene and a result. Of all reagents, 246 (1%) are marked active. 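Plates not normalised; calls are printed but the firefly/Renilla ratio behind them is not deposited; fold cut for lowering reported inconsistently.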 Raw values vary from plate to plate and are shown uncorrected. Not stated in the record: the amount of reagent.

- Test: 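Knock-downs that decrease or increase androgen receptor reporter signal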 (primary screen)
- Cell system: Drosophila S2R+ cells
- Knock-down reagent: long dsRNA against Drosophila genes
- Time to read-out: 72 h (48 h, then 24 h hormone)
- Challenge: synthetic androgen R1881 at 10 nM for 24 h
- Detection: 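Firefly light from an androgen-responsive reporter and Renilla control light per well, raw and unnormalised, for each of two replicates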
- Reading the numbers: firefly reporter light: higher = more light from androgen-responsive reporter; Renilla control light: higher = more constitutive control signal (cell number, transfection)
- Active means: 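Hit when the log firefly-to-Renilla ratio dropped or increased by a fixed fold versus the mean of GFP or LacZ controls across duplicate plates; lowering cut given as 1.5 and as 3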
- Calls: active = hit: reporter lowered or raised; inactive = no hit

CG3698 [DRSC11749]: firefly reporter light, replicate 1 = 73581; firefly reporter light, replicate 2 = 63375; Renilla control light, replicate 1 = 4.33e5; Renilla control light, replicate 2 = 3.65e5; activity call = inactive
CG3698 [DRSC26417]: firefly reporter light, replicate 1 = 2.43e5; firefly reporter light, replicate 2 = 3.21e5; Renilla control light, replicate 1 = 3.71e5; Renilla control light, replicate 2 = 6.94e5; activity call = inactive
Slh (SLY-1 homologous) [DRSC00407]: firefly reporter light, replicate 1 = 1.46e5; firefly reporter light, replicate 2 = 1.91e5; Renilla control light, replicate 1 = 1.01e6; Renilla control light, replicate 2 = 1.35e6; activity call = inactive
Slh (SLY-1 homologous) [DRSC00789]: firefly reporter light, replicate 1 = 87852; firefly reporter light, replicate 2 = 74420; Renilla control light, replicate 1 = 7.04e5; Renilla control light, replicate 2 = 7.58e5; activity call = inactive
Slh (SLY-1 homologous) [DRSC27448]: firefly reporter light, replicate 1 = 2.37e5; firefly reporter light, replicate 2 = 3.20e5; Renilla control light, replicate 1 = 7.67e5; Renilla control light, replicate 2 = 8.01e5; activity call = inactive
CG34033 [DRSC38882]: firefly reporter light, replicate 1 = 1.34e6; firefly reporter light, replicate 2 = 1.10e6; Renilla control light, replicate 1 = 2.05e6; Renilla control light, replicate 2 = 1.50e6; activity call = inactive
CG9436 [DRSC05005]: firefly reporter light, replicate 1 = 9.09e5; firefly reporter light, replicate 2 = 7.30e5; Renilla control light, replicate 1 = 2.08e6; Renilla control light, replicate 2 = 1.71e6; activity call = inactive
CG31441 [DRSC15723]: firefly reporter light, replicate 1 = 1.11e5; firefly reporter light, replicate 2 = 2.02e5; Renilla control light, replicate 1 = 1.84e6; Renilla control light, replicate 2 = 2.15e6; activity call = inactive
CG31441 [DRSC27463]: firefly reporter light, replicate 1 = 2.21e5; firefly reporter light, replicate 2 = 3.25e5; Renilla control light, replicate 1 = 7.11e5; Renilla control light, replicate 2 = 7.32e5; activity call = inactive
Plzf (Promyelocytic leukemia zinc finger) [DRSC02994]: firefly reporter light, replicate 1 = 2.58e5; firefly reporter light, replicate 2 = 3.99e5; Renilla control light, replicate 1 = 1.06e6; Renilla control light, replicate 2 = 1.42e6; activity call = inactive
Klp98A (Kinesin-like protein at 98A) [DRSC16724]: firefly reporter light, replicate 1 = 3.19e5; firefly reporter light, replicate 2 = 2.32e5; Renilla control light, replicate 1 = 3.60e6; Renilla control light, replicate 2 = 3.67e6; activity call = inactive
Klp98A (Kinesin-like protein at 98A) [DRSC21834]: firefly reporter light, replicate 1 = 5.89e5; firefly reporter light, replicate 2 = 5.98e5; Renilla control light, replicate 1 = 2.39e6; Renilla control light, replicate 2 = 2.84e6; activity call = inactive
Rfx [DRSC16820]: firefly reporter light, replicate 1 = 1.42e5; firefly reporter light, replicate 2 = 1.05e5; Renilla control light, replicate 1 = 1.73e6; Renilla control light, replicate 2 = 2.48e6; activity call = inactive
CR33319 (pseudo) [DRSC01826]: firefly reporter light, replicate 1 = 1.46e5; firefly reporter light, replicate 2 = 1.61e5; Renilla control light, replicate 1 = 3.21e5; Renilla control light, replicate 2 = 4.30e5; activity call = inactive
TwdlN (TweedleN) [DRSC25037]: firefly reporter light, replicate 1 = 5.78e5; firefly reporter light, replicate 2 = 6.09e5; Renilla control light, replicate 1 = 8.89e5; Renilla control light, replicate 2 = 1.09e6; activity call = inactive
CG30268 [DRSC21983]: firefly reporter light, replicate 1 = 9.34e5; firefly reporter light, replicate 2 = 8.68e5; Renilla control light, replicate 1 = 1.94e6; Renilla control light, replicate 2 = 2.24e6; activity call = inactive
Myo61F (Myosin 61F) [DRSC22144]: firefly reporter light, replicate 1 = 1.37e6; firefly reporter light, replicate 2 = 1.22e6; Renilla control light, replicate 1 = 2.17e6; Renilla control light, replicate 2 = 1.95e6; activity call = inactive
Myo61F (Myosin 61F) [DRSC27633]: firefly reporter light, replicate 1 = 1.96e5; firefly reporter light, replicate 2 = 1.75e5; Renilla control light, replicate 1 = 3.04e5; Renilla control light, replicate 2 = 4.69e5; activity call = inactive
CG2218 [DRSC15428]: firefly reporter light, replicate 1 = 1.35e5; firefly reporter light, replicate 2 = 92212; Renilla control light, replicate 1 = 1.28e6; Renilla control light, replicate 2 = 8.80e5; activity call = inactive
CG2218 [DRSC28089]: firefly reporter light, replicate 1 = 2.12e5; firefly reporter light, replicate 2 = 2.57e5; Renilla control light, replicate 1 = 1.50e6; Renilla control light, replicate 2 = 1.33e6; activity call = active
CG15446 [DRSC20518]: firefly reporter light, replicate 1 = 1.18e5; firefly reporter light, replicate 2 = 1.05e5; Renilla control light, replicate 1 = 3.57e5; Renilla control light, replicate 2 = 2.98e5; activity call = inactive
SP2353 [DRSC07545]: firefly reporter light, replicate 1 = 10969; firefly reporter light, replicate 2 = 10123; Renilla control light, replicate 1 = 3.67e5; Renilla control light, replicate 2 = 3.67e5; activity call = active
SP2353 [DRSC23895]: firefly reporter light, replicate 1 = 1.99e5; firefly reporter light, replicate 2 = 2.70e5; Renilla control light, replicate 1 = 6.73e5; Renilla control light, replicate 2 = 5.98e5; activity call = inactive
Sox100B [DRSC15090]: firefly reporter light, replicate 1 = 1.96e5; firefly reporter light, replicate 2 = 1.63e5; Renilla control light, replicate 1 = 2.02e6; Renilla control light, replicate 2 = 2.46e6; activity call = inactive
Sox100B [DRSC23485]: firefly reporter light, replicate 1 = 1.91e5; firefly reporter light, replicate 2 = 3.05e5; Renilla control light, replicate 1 = 7.89e5; Renilla control light, replicate 2 = 5.08e5; activity call = inactive
CG32073 [DRSC09087]: firefly reporter light, replicate 1 = 2.14e5; firefly reporter light, replicate 2 = 46615; Renilla control light, replicate 1 = 3.54e5; Renilla control light, replicate 2 = 1.47e5; activity call = inactive
CG32073 [DRSC09894]: firefly reporter light, replicate 1 = 2.95e5; firefly reporter light, replicate 2 = 3.30e5; Renilla control light, replicate 1 = 3.45e6; Renilla control light, replicate 2 = 3.16e6; activity call = inactive

Laid out differently: results already given.
{"predicted target":"CG3698","dsRNA":"DRSC11749","firefly reporter light, replicate 1":73581,"firefly reporter light, replicate 2":63375,"Renilla control light, replicate 1":4.33e5,"Renilla control light, replicate 2":3.65e5,"activity call":"inactive"}
{"predicted target":"CG3698","dsRNA":"DRSC26417","firefly reporter light, replicate 1":2.43e5,"firefly reporter light, replicate 2":3.21e5,"Renilla control light, replicate 1":3.71e5,"Renilla control light, replicate 2":6.94e5,"activity call":"inactive"}
